# Test results taken from the supplement of paper PMC8728848.
# Some of the results follow.
# B1: SJCP1531 (Schistosoma japonicum) (protein)
# chain: MFKVRIINLVNISTVLLLINLLQTKSQVNVEQLVTVLEVNIKAQLKNKTTEVLVEWNPLYQDNSMPEYRKLLDETCKLFLPFVNEKVPPSTYGGECTNANFSEAPQDGSYSRVNAELRLIYKYSDNPQIQTDRLQDDLNDREEFITSESSFVAYNPKFTVKIEKLFIPISESQTTPPPTTAKNDASKKDDDDNGGEDSKAPIDTFAMTASGNKGKKDDDDNGGEDSKAPIDTFAMTASGSKDERSTWTIIGIITLVVLIFVVIGGGITVFVKRC
# Tests used:
# Assay in all cases: glycan array binding signal (z-score within array); higher = stronger binding
# Settings in all cases: glycan notation: IUPAC condensed, linker removed
# [1] = target: Neu5Ac(a2-3)Gal(b1-4)GlcNAc(b1-3)Gal(b1-4)GlcNAc(b1-3)Gal(b1-4)GlcNAc
# Outline: (§1)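 The binding signal is a Z-score computed within each array and averaged over linkers. Arrays of the same protein sequence at different concentrations or buffers were also averaged together. Data originate from 3228 arrays in the Consortium for Functional Glycomics database, kept only where the protein sequence was available.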
# [2] = target: Neu5Ac(a2-3)Gal(b1-4)GlcNAc(b1-3)Gal(b1-4)GlcNAc(b1-3)Gal(b1-4)GlcNAc(b1-2)Man(a1-3)[Neu5Ac(a2-3)Gal(b1-4)GlcNAc(b1-3)Gal(b1-4)GlcNAc(b1-3)Gal(b1-4)GlcNAc(b1-2)Man(a1-6)]GalNAc
# Outline: as §1
# [3] = target: Neu5Ac(a2-3)Gal(b1-4)GlcNAc(b1-3)Gal(b1-4)GlcNAc(b1-3)GalNAc
# Outline: as §1
# [4] = target: Neu5Ac(a2-3)Gal(b1-4)GlcNAc(b1-3)Gal(b1-4)GlcNAc(b1-3)[Neu5Ac(a2-3)Gal(b1-4)GlcNAc(b1-3)Gal(b1-4)GlcNAc(b1-6)]GalNAc
# Outline: as §1
# [5] = target: Neu5Ac(a2-3)Gal(b1-4)GlcNAc(b1-3)Gal(b1-4)GlcNAc(b1-6)[Gal(b1-3)]GalNAc
# Outline: as §1
# [6] = target: Neu5Ac(a2-3)Gal(b1-4)GlcNAc(b1-3)Gal(b1-4)[Fuc(a1-3)]GlcNAc
# Outline: as §1
# [7] = target: Neu5Ac(a2-3)Gal(b1-4)GlcNAc(b1-3)GalNAc
# Outline: as §1
# [8] = target: Neu5Ac(a2-3)Gal(b1-4)GlcNAc(b1-3)[Neu5Ac(a2-3)Gal(b1-4)GlcNAc(b1-6)]GalNAc
# Outline: as §1
# [9] = target: Neu5Ac(a2-3)Gal(b1-4)GlcNAc(b1-6)GalNAc
# Outline: as §1
# [10] = target: Neu5Ac(a2-3)Gal(b1-4)GlcNAc(b1-6)[Gal(b1-3)]GalNAc
# Outline: as §1
# [11] = target: Neu5Ac(a2-3)Gal(b1-4)GlcNAc(b1-6)[Neu5Ac(a2-3)Gal(b1-3)]GalNAc
# Outline: as §1
# [12] = target: Neu5Ac(a2-3)Gal(b1-4)GlcNAc6S
# Outline: as §1
# [13] = target: Neu5Ac(a2-3)Gal(b1-4)[Fuc(a1-3)]GlcNAc
# Outline: as §1
# [14] = target: Neu5Ac(a2-3)Gal(b1-4)[Fuc(a1-3)]GlcNAc(b1-2)Man
# Outline: as §1
# [15] = target: Neu5Ac(a2-3)Gal(b1-4)[Fuc(a1-3)]GlcNAc(b1-3)Gal
# Outline: as §1
# [16] = target: Neu5Ac(a2-3)Gal(b1-4)[Fuc(a1-3)]GlcNAc(b1-3)Gal(b1-4)GlcNAc
# Outline: as §1
# [17] = target: Neu5Ac(a2-3)Gal(b1-4)[Fuc(a1-3)]GlcNAc(b1-3)Gal(b1-4)[Fuc(a1-3)]GlcNAc(b1-3)Gal(b1-4)[Fuc(a1-3)]GlcNAc
# Outline: as §1
# [18] = target: Neu5Ac(a2-3)Gal(b1-4)[Fuc(a1-3)]GlcNAc(b1-3)GalNAc
# Outline: as §1
# [19] = target: Neu5Ac(a2-3)Gal(b1-4)[Fuc(a1-3)]GlcNAc(b1-6)[Gal(b1-3)]GalNAc
# Outline: as §1
# [20] = target: Neu5Ac(a2-3)Gal(b1-4)[Fuc(a1-3)]GlcNAc(b1-6)[Neu5Ac(a2-3)Gal(b1-3)]GalNAc
# Outline: as §1
# [21] = target: Neu5Ac(a2-3)Gal(b1-4)[Fuc(a1-3)]GlcNAc6S
# Outline: as §1
# [22] = target: Neu5Ac(a2-3)Gal6S(b1-4)GlcNAc
# Outline: as §1
# [23] = target: Neu5Ac(a2-3)Gal6S(b1-4)[Fuc(a1-3)]GlcNAc
# Outline: as §1
# Neu5Ac(a2-3)GalNAc = target: Neu5Ac(a2-3)GalNAc
# Outline: as §1
# [24] = target: Neu5Ac(a2-3)GalNAc(b1-4)GlcNAc
# Outline: as §1
# [25] = target: Neu5Ac(a2-3)[GalNAc(b1-4)]Gal(b1-4)Glc
# Outline: as §1
# [26] = target: Neu5Ac(a2-3)[GalNAc(b1-4)]Gal(b1-4)GlcNAc
# Outline: as §1
# [27] = target: Neu5Ac(a2-3)[GalNAc(b1-4)]Gal(b1-4)GlcNAc(b1-3)GalNAc
# Outline: as §1
# [28] = target: Neu5Ac(a2-3)[Neu5Ac(a2-6)]GalNAc
# Outline: as §1
# Neu5Ac(a2-6)Gal = target: Neu5Ac(a2-6)Gal
# Outline: as §1
# [29] = target: Neu5Ac(a2-6)Gal(b1-3)GlcNAc(b1-3)[Gal(b1-4)GlcNAc(b1-6)]Gal(b1-4)Glc
# Outline: as §1
# Neu5Ac(a2-6)Gal(b1-4)Glc = target: Neu5Ac(a2-6)Gal(b1-4)Glc
# Outline: as §1
# [30] = target: Neu5Ac(a2-6)Gal(b1-4)GlcNAc
# Outline: as §1
# [31] = target: Neu5Ac(a2-6)Gal(b1-4)GlcNAc(b1-2)Man
# Outline: as §1
# [32] = target: Neu5Ac(a2-6)Gal(b1-4)GlcNAc(b1-2)Man(a1-3)Man(b1-4)GlcNAc(b1-4)GlcNAc
# Outline: as §1
# [33] = target: Neu5Ac(a2-6)Gal(b1-4)GlcNAc(b1-2)Man(a1-3)[Gal(b1-4)GlcNAc(b1-2)Man(a1-6)]Man(b1-4)GlcNAc(b1-4)GlcNAc
# Outline: as §1
# [34] = target: Neu5Ac(a2-6)Gal(b1-4)GlcNAc(b1-2)Man(a1-3)[GlcNAc(b1-2)Man(a1-6)]Man(b1-4)GlcNAc(b1-4)GlcNAc
# Outline: as §1
# [35] = target: Neu5Ac(a2-6)Gal(b1-4)GlcNAc(b1-2)Man(a1-3)[GlcNAc(b1-4)][Neu5Ac(a2-6)Gal(b1-4)GlcNAc(b1-2)Man(a1-6)]Man(b1-4)GlcNAc(b1-4)GlcNAc
# Outline: as §1
binder,measurement,setting,value
B1,glycan array binding signal (z-score),[1],2.12
same,glycan array binding signal (z-score),[2],0.712
same,glycan array binding signal (z-score),[3],-1.21
same,glycan array binding signal (z-score),[4],-0.569
same,glycan array binding signal (z-score),[5],-0.981
same,glycan array binding signal (z-score),[6],-0.676
same,glycan array binding signal (z-score),[7],1.18
same,glycan array binding signal (z-score),[8],-0.986
same,glycan array binding signal (z-score),[9],-0.685
same,glycan array binding signal (z-score),[10],0.638
same,glycan array binding signal (z-score),[11],-0.574
same,glycan array binding signal (z-score),[12],0.004
same,glycan array binding signal (z-score),[13],-0.336
same,glycan array binding signal (z-score),[14],-0.84
same,glycan array binding signal (z-score),[15],-0.914
same,glycan array binding signal (z-score),[16],-1.08
same,glycan array binding signal (z-score),[17],1.85
same,glycan array binding signal (z-score),[18],2.04
same,glycan array binding signal (z-score),[19],1.01
same,glycan array binding signal (z-score),[20],-0.034
same,glycan array binding signal (z-score),[21],-0.06
same,glycan array binding signal (z-score),[22],0.498
same,glycan array binding signal (z-score),[23],-1.33
same,glycan array binding signal (z-score),Neu5Ac(a2-3)GalNAc,1.74
same,glycan array binding signal (z-score),[24],0.66
same,glycan array binding signal (z-score),[25],0.462
same,glycan array binding signal (z-score),[26],-1.06
same,glycan array binding signal (z-score),[27],0.971
same,glycan array binding signal (z-score),[28],0.103
same,glycan array binding signal (z-score),Neu5Ac(a2-6)Gal,-0.277
same,glycan array binding signal (z-score),[29],-0.834
same,glycan array binding signal (z-score),Neu5Ac(a2-6)Gal(b1-4)Glc,-1.21
same,glycan array binding signal (z-score),[30],-0.219
same,glycan array binding signal (z-score),[31],0.253
same,glycan array binding signal (z-score),[32],1.23
same,glycan array binding signal (z-score),[33],-0.959
same,glycan array binding signal (z-score),[34],-0.354
same,glycan array binding signal (z-score),[35],0.333

# In another format: results already given
binder	measurement	setting	value
B1	glycan array binding signal (z-score)	[7]	1.18
same	glycan array binding signal (z-score)	[29]	-0.834
